Test results reported in patent US10960041B2, “Method for alleviating ultraviolet damage with ethyl acetate-extracted product of Sedum formosanum” (priority 2017, dated 2021).
At least one compound was matched to its structure with a doubt left.

Tested on: HaCaT cells
Test: Apoptosis assay (FITC Annexin V/PI), UV-induced apoptosis in HaCaT cells
Assay type: cell-based, human
Settings: low concentration (125 μg/mL), UV 50 mJ/cm^2

Row | Compound | effect on UV-induced apoptosis compared with UV control group 1
1 | O=c1c(O[C@@H]2O[C@H](CO)[C@@H](O)[C@H](O)[C@H]2O)c(-c2ccc(O)cc2)oc2cc(O)cc(O)c12 [astragalin] | may protect cells from UV-induced apoptosis
2 | O=c1cc(-c2ccc(O)cc2)oc2c([C@@H]3O[C@H](CO)[C@@H](O)[C@H](O)[C@H]3O)c(O)cc(O)c12 [vitexin] | may protect cells from UV-induced apoptosis
